# Laboratory results: paper PMC7694386
# Amino acid sequences for entries named in this document (tags omitted).
# UniProt O95817: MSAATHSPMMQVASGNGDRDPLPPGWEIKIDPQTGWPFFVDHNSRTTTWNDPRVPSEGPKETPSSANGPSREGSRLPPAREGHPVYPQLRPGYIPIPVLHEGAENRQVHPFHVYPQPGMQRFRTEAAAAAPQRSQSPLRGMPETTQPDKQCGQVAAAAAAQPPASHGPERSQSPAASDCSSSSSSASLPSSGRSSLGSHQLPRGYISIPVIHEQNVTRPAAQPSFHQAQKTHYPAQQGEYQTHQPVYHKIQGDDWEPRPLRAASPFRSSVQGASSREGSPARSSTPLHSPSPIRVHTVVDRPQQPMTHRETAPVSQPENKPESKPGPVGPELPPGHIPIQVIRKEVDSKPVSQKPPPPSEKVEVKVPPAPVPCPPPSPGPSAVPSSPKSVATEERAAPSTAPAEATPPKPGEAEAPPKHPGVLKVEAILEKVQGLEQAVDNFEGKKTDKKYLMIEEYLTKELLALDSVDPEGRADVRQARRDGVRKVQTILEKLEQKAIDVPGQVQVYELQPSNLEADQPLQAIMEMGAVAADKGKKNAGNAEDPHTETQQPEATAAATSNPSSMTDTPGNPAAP
# No constants are given. Whether binding was seen depends on the method and setting. In cells and extracts the contact can be indirect. These calls come from enrichment with a bait or labelling near it, and not all partners need be listed.
# B1: Ribosomal RNA processing protein 1 homolog A (protein, UniProt P56182 1-461)
# chain: MVSRVQLPPEIQLAQRLAGNEQVTRDRAVRKLRKYIVARTQRAAGGFTHDELLKVWKGLFYCMWMQDKPLLQEELGRTISQLVHAFQTTEAQHLFLQAFWQTMNREWTGIDRLRLDKFYMLMRMVLNESLKVLKMQGWEERQIEELLELLMTEILHPSSQAPNGVKSHFIEIFLEELTKVGAEELTADQNLKFIDPFCRIAARTKDSLVLNNITRGIFETIVEQAPLAIEDLLNELDTQDEEVASDSDESSEGGERGDALSQKRSEKPPAGSICRAEPEAGEEQAGDDRDSGGPVLQFDYEAVANRLFEMASRQSTPSQNRKRLYKVIRKLQDLAGGIFPEDEIPEKACRRLLEGRRQKKTKKQKRLLRLQQERGKGEKEPPSPGMERKRSRRRGVGADPEARAEAGEQPGTAERALLRDQPRGRGQRGARQRRRTPRPLTSARAKAANVQEPEKKKKRRE
# B2: Leucine-rich repeat flightless-interacting protein 2 (protein, UniProt Q9Y608 1-721)
# chain: MGTPASGRKRTPVKDRFSAEDEALSNIAREAEARLAAKRAARAEARDIRMRELERQQKEYSLHSFDRKWGQIQKWLEDSERARYSHRSSHHRPYLGVEDALSIRSVGSHRYDMFKDRSSRLSSLNHSYSHSHGMKKRSSDSHKDLLSGLYFDQRNYSSLRHSKPTSAYYTRQSSSLYSDPLATYKSDRASPTANSGLLRSASLASLYNGGLYNPYGPRTPSECSYYSSRISSARSSPGFTNDDTASIVSSDRASRGRRESVVSAADYFSRSNRRGSVVSEVDDISIPDLSSLDEKSDKQYAENYTRPSSRNSASATTPLSGNSSRRGSGDTSSLIDPDTSLSELRDIYDLKDQIQDVEGRYMQGLKELKESLSEVEEKYKKAMVSNAQLDNEKNNLIYQVDTLKDVIEEQEEQMAEFYRENEEKSKELERQKHMCSVLQHKMEELKEGLRQRDELIEEKQRMQQKIDTMTKEVFDLQETLLWKDKKIGALEKQKEYIACLRNERDMLREELADLQETVKTGEKHGLVIIPDGTPNGDVSHEPVAGAITVVSQEAAQVLESAGEGPLDVRLRKLAGEKEELLSQIRKLKLQLEEERQKCSRNDGTVGDLAGLQNGSDLQFIEMQRDANRQISEYKFKLSKAEQDITTLEQSISRLEGQVLRYKTAAENAEKVEDELKAEKRKLQRELRTALDKIEEMEMTNSHLAKRLEKMKANRTALLAQQ
# B3: Protein HGH1 homolog (protein, UniProt Q9BTY7 1-390)
# chain: MGEAGAGAGASGGPEASPEAEVVKLLPFLAPGARADLQAAAVRHVLALTGCGPGRALLAGQAALLQALMELAPASAPARDAARALVNLAADPGLHETLLAADPGLPARLMGRALDPQWPWAEEAAAALANLSREPAPCAALMAALAAAEPADSGLERLVRALCTPGYNARAPLHYLAPLLSNLSQRPAARAFLLDPDRCVVQRLLPLTQYPDSSVRRGGVVGTLRNCCFEHRHHEWLLGPEVDILPFLLLPLAGPEDFSEEEMERLPVDLQYLPPDKQREPDADIRKMLVEAIMLLTATAPGRQQVRDQGAYLILRELHSWEPEPDVRTACEKLIQVLIGDEPERGMENLLEVQVPEDVEQQLQQLDCREQEQLERELAPEPWVERATPT
# B4: Transmembrane protein 237 (protein, UniProt Q96Q45 1-408)
# chain: MRTDSGARLEEGHLRPPRALPPVPSQDDIPLSRPKKKKPRTKNTPASASLEGLAQTAGRRPSEGNEPSTKELKEHPEAPVQRRQKKTRLPLELETSSTQKKSSSSSLLRNENGIDAEPAEEAVIQKPRRKTKKTQPAELQYANELGVEDEDIITDEQTTVEQQSVFTAPTGISQPVGKVFVEKSRRFQAADRSELIKTTENIDVSMDVKPSWTTRDVALTVHRAFRMIGLFSHGFLAGCAVWNIVVIYVLAGDQLSNLSNLLQQYKTLAYPFQSLLYLLLALSTISAFDRIDFAKISVAIRNFLALDPTALASFLYFTALILSLSQQMTSDRIHLYTPSSVNGSLWEAGIEEQILQPWIVVNLVVALLVGLSWLFLSYRPGMDLSEELMFSSEVEEYPDKEKEIKASS
# B5: RNA-binding protein 34 (protein, UniProt P42696 1-430)
# chain: MALEGMSKRKRKRSVQEGENPDDGVRGSPPEDYRLGQVASSLFRGEHHSRGGTGRLASLFSSLEPQIQPVYVPVPKQTIKKTKRNEEEESTSQIERPLSQEPAKKVKAKKKHTNAEKKLADRESALASADLEEEIHQKQGQKRKNSQPGVKVADRKILDDTEDTVVSQRKKIQINQEEERLKNERTVFVGNLPVTCNKKKLKSFFKEYGQIESVRFRSLIPAEGTLSKKLAAIKRKIHPDQKNINAYVVFKEESAATQALKRNGAQIADGFRIRVDLASETSSRDKRSVFVGNLPYKVEESAIEKHFLDCGSIMAVRIVRDKMTGIGKGFGYVLFENTDSVHLALKLNNSELMGRKLRVMRSVNKEKFKQQNSNPRLKNVSKPKQGLNFTSKTAEGHPKSLFIGEKAVLLKTKKKGQKKSGRPKKQRKQK
# B6: Leucine-rich repeat flightless-interacting protein 1 (protein, UniProt Q32MZ4 1-808)
# chain: MTSPAAAQSREIDCLSPEAQKLAEARLAAKRAARAEAREIRMKELERQQKEEDSERYSRRSRRNTSASDEDERMSVGSRGSLRVEERPEKDFTEKGSRNMPGLSAATLASLGGTSSRRGSGDTSISIDTEASIREIKELNELKDQIQDVEGKYMQGLKEMKDSLAEVEEKYKKAMVSNAQLDNEKTNFMYQVDTLKDMLLELEEQLAESRRQYEEKNKEFEREKHAHSILQFQFAEVKEALKQREEMLEKHGIILNSEIATNGETSDTLNNVGYQGPTKMTKEELNALKSTGDGTLGRASEVEVKNEIVANVGKREILHNTEKEQHTEDTVKDCVDIEVFPAGENTEDQKSSEDTAPFLGTLAGATYEEQVQSQILESSSLPENTVQVESNEVMGAPDDRTRTPLEPSNCWSDLDGGNHTENVGEAAVTQVEEQAGTVASCPLGHSDDTVYHDDKCMVEVPQELETSTGHSLEKEFTNQEAAEPKEVPAHSTEVGRDHNEEEGEETGLRDEKPIKTEVPGSPAGTEGNCQEATGPSTVDTQNEPLDMKEPDEEKSDQQGEALDSSQKKTKNKKKKNKKKKSPVPVETLKDVKKELTYQNTDLSEIKEEEQVKSTDRKSAVEAQNEVTENPKQKIAAESSENVDCPENPKIKLDGKLDQEGDDVQTAAEEVLADGDTLDFEDDTVQSSGPRAGGEELDEGVAKDNAKIDGATQSSPAEPKSEDADRCTLPEHESPSQDISDACEAESTERCEMSEHPSQTVRKALDSNSLENDDLSAPGREPGHFNPESREDTRGGNEKGKSKEDCTMS
# B7: Probable ATP-dependent RNA helicase DDX47 (protein, UniProt Q9H0S4 1-455)
# chain: MAAPEEHDSPTEASQPIVEEEETKTFKDLGVTDVLCEACDQLGWTKPTKIQIEAIPLALQGRDIIGLAETGSGKTGAFALPILNALLETPQRLFALVLTPTRELAFQISEQFEALGSSIGVQSAVIVGGIDSMSQSLALAKKPHIIIATPGRLIDHLENTKGFNLRALKYLVMDEADRILNMDFETEVDKILKVIPRDRKTFLFSATMTKKVQKLQRAALKNPVKCAVSSKYQTVEKLQQYYIFIPSKFKDTYLVYILNELAGNSFMIFCSTCNNTQRTALLLRNLGFTAIPLHGQMSQSKRLGSLNKFKAKARSILLATDVASRGLDIPHVDVVVNFDIPTHSKDYIHRVGRTARAGRSGKAITFVTQYDVELFQRIEHLIGKKLPGFPTQDDEVMMLTERVAEAQRFARMELREHGEKKKRSREDAGDNDDTEGAIGVRNKVAGGKMKKRKGR
# B8: Protein SCAF11 (protein, UniProt Q99590 1-1463)
# chain: MKKKTVCTLNMGDKKYEDMEGEENGDNTISTGLLYSEADRCPICLNCLLEKEVGFPESCNHVFCMTCILKWAETLASCPIDRKPFQAVFKFSALEGYVKVQVKKQLRETKDKKNENSFEKQVSCHENSKSCIRRKAIVREDLLSAKVCDLKWIHRNSLYSETGGKKNAAIKINKPQRSNWSTNQCFRNFFSNMFSSVSHSGESSFTYRAYCTEFIEASEISALIRQKRHELELSWFPDTLPGIGRIGFIPWNVETEVLPLISSVLPRTIFPTSTISFEHFGTSCKGYALAHTQEGEEKKQTSGTSNTRGSRRKPAMTTPTRRSTRNTRAETASQSQRSPISDNSGCDAPGNSNPSLSVPSSAESEKQTRQAPKRKSVRRGRKPPLLKKKLRSSVAAPEKSSSNDSVDEETAESDTSPVLEKEHQPDVDSSNICTVQTHVENQSANCLKSCNEQIEESEKHTANYDTEERVGSSSSESCAQDLPVLVGEEGEVKKLENTGIEANVLCLESEISENILEKGGDPLEKQDQISGLSQSEVKTDVCTVHLPNDFPTCLTSESKVYQPVSCPLSDLSENVESVVNEEKITESSLVEITEHKDFTLKTEELIESPKLESSEGEIIQTVDRQSVKSPEVQLLGHVETEDVEIIATCDTFGNEDFNNIQDSENNLLKNNLLNTKLEKSLEEKNESLTEHPRSTELPKTHIEQIQKHFSEDNNEMIPMECDSFCSDQNESEVEPSVNADLKQMNENSVTHCSENNMPSSDLADEKVETVSQPSESPKDTIDKTKKPRTRRSRFHSPSTTWSPNKDTPQEKKRPQSPSPRRETGKESRKSQSPSPKNESARGRKKSRSQSPKKDIARERRQSQSRSPKRDTTRESRRSESLSPRRETSRENKRSQPRVKDSSPGEKSRSQSRERESDRDGQRRERERRTRKWSRSRSHSRSPSRCRTKSKSSSFGRIDRDSYSPRWKGRWANDGWRCPRGNDRYRKNDPEKQNENTRKEKNDIHLDADDPNSADKHRNDCPNWITEKINSGPDPRTRNPEKLKESHWEENRNENSGNSWNKNFGSGWVSNRGRGRGNRGRGTYRSSFAYKDQNENRWQNRKPLSGNSNSSGSESFKFVEQQSYKRKSEQEFSFDTPADRSGWTSASSWAVRKTLPADVQNYYSRRGRNSSGPQSGWMKQEEETSGQDSSLKDQTNQQVDGSQLPINMMQPQMNVMQQQMNAQHQPMNIFPYPVGVHAPLMNIQRNPFNIHPQLPLHLHTGVPLMQVATPTSVSQGLPPPPPPPPPSQQVNYIASQPDGKQLQGIPSSSHVSNNMSTPVLPAPTAAPGNTGMVQGPSSGNTSSSSHSKASNAAVKLAESKVSVAVEASADSSKTDKKLQIQEKAAQEVKLAIKPFYQNKDITKEEYKEIVRKAVDKVCHSKSGEVNSTKVANLVKAYVDKYKYSRKGSQKKTLEEPVSTEKNIG
# Target: BAG3 (BCL-2-associated athanogene 3) (human (endogenous in HEK293T)) (UniProt O95817)
# Test: affinity purification with mass spectrometry; endogenous BAG3 immunoprecipitated with anti-BAG3 antibody and Protein A/G magnetic beads from HEK293T lysate; cells treated with DMSO (basal) or 10 µM MG132 for 6 h; IgG IP (MG132_IgG) as control; label-free quantification, three biological replicates
row,binding,Binder
1,binds,B1
2,binds,B2
3,binds,B3
4,binds,B4
5,binds,B5
6,binds,B6
7,binds,B7
8,binds,B8
